Results reported in the supplement of paper PMC3334620.
Whole data set: some 33,000 sequences, median “E-score (-0.5 to 0.5)” near -0.0014, cut for the highest 2% near 0.25. This is one part of the list.

Biological target: T1, Cad1 (UniProt P24813)
T1 sequence: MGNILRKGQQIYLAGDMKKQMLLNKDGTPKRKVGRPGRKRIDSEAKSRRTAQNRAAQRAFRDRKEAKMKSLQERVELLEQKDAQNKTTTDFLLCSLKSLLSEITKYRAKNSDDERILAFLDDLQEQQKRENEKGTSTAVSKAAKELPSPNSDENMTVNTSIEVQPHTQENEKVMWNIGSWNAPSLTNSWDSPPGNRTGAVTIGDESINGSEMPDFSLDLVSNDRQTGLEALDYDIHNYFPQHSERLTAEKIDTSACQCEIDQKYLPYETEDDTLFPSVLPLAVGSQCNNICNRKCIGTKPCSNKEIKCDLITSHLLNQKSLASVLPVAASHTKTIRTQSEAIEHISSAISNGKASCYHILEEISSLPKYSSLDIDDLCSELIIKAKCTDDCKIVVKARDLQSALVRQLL
Test: PBM E-score (8-mer binding enrichment) (E-score (-0.5 to 0.5)); higher = stronger / more preferred TF binding
Settings: protein concentration: 100 nM; construct: GST-full length
Summary of the method: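 Yeast transcription factors carrying a GST tag, as full-length proteins or DNA-binding domains, were produced by PURExpress in vitro transcription/translation. About 100-200 nM protein was applied to universal all-10-mer Agilent arrays, double-stranded by primer extension on fresh or once-stripped slides. Bound protein was detected with fluorescent anti-GST, and scans were normalised with masliner. The Universal PBM Analysis Suite gave each ungapped eight-base word, pooled with its reverse complement, an E-score, a modified Wilcoxon-Mann-Whitney statistic.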

Sequence	PBM E-score
CGCCGCCC	-0.0639
CTTCAGTA	0.0842
CAGGCAAG	-0.0992
ACAGTCGC	-0.208
AGCCCATC	-0.203
ACGACACT	0.0214
CCACTCTC	-0.0497
CCGACCAA	0.0488
GGGCAGCA	-0.0781
AGGCTCGA	0.081
CCACGGCG	-0.00429
TGGCCCAA	-0.0497
GCAAGACA	-0.0299
CTGTCGAC	-0.0383
GTTAATAA	0.249
ATTCTAGA	0.0465
ACGTCGTA	-0.158
ACGAGTGG	-0.206
AGTGATTG	-0.187
CCGGTGGA	-0.115
ACTAAGCG	0.3
ATCGCAGA	-0.00647
AATGATAG	0.205
ATCGTTTG	0.179
GCCAAAGC	-0.176

Sequence	PBM E-score
GACTACAC	0.00788
GTGAGTGA	-0.0946
ACCCTAAC	0.0127
ATCTCAGC	0.128
AAAGCCAT	0.118
CGCATTCC	-0.216
AAATGGTC	0.191
TACCGACA	0.105
TACGGAAA	0.0558
CGTGCCCA	-0.0465
CACGGCAA	0.0817
CACAGGGC	-0.0242
AACATCAG	0.123
GGGTCTAC	-0.0723
GGATAGCA	0.0379
CTTCCTAC	-0.384
CTGTTAGA	-0.066
GGTCAGGA	-0.0994
ATAGTGTG	0.0676
GAACCAGC	0.106
GCACCTGC	0.0118
CTAACTTA	0.0684
ACCTAAAT	0.148
CACGGATC	0.0559
CTGCACTA	0.184

Sequence	PBM E-score
AGGCATAA	-0.0887
CAATATAG	0.101
AAGTCCGT	-0.0429
GGTTTAAA	0.053
ACGTCGAA	0.00102
CAGAAAGC	-0.0553
ATTGTCTG	0.196
ATGGTCGG	0.0206
AGTACCGC	-0.0174
GTGCACAA	-0.0443
CCGACCAC	-0.0648
AGCGCAAT	0.173
CTGAATTA	0.122
CTGCTAGC	-0.0526
AAATTACT	0.314
AACCAGAA	-0.103
GAAAGTGA	0.0734
ACTAGGAC	0.028
AGATCTTG	-0.0479
AACTCTGA	0.0586
CGATACGA	0.0601
AATAAGAT	0.039
TAGCGTGA	-0.0296
TGGGTACA	0.0709
ATCATTTG	0.0608

For convenience, part of the list above:
Sequence	PBM E-score
CTGCTAGC	-0.0526
AAATTACT	0.314
AACCAGAA	-0.103
GAAAGTGA	0.0734
ACTAGGAC	0.028

Next part:

Sequence	PBM E-score
GGGTAATA	0.112
ACTTTTAT	0.0287
CATTGAAG	-0.0438
TTAGCGAA	0.0483
CGGCTCGC	0.172
CCCTACTA	-0.0857
GATATGTA	0.128
CAGCAAAC	0.0826
ATCTACAC	0.0982
CCCGATAG	-0.114
ACTTTGTA	0.0495
CGGCCTAC	0.103
CGTTATGC	0.103
CTTACTGA	0.208
CAATTCCA	-0.0425
ACAAAAAG	-0.0829
CCCCTACC	-0.179
CGATGCTC	-0.142
TAAACGGA	0.246
TCACTGCA	0.202
AGCCACAG	-0.13
ACAAGCAT	-0.0356
GAAGTAGA	0.163
ATGCTGAC	0.165
CAGCATTC	0.0657

Sequence	PBM E-score
ACTTCTGG	-0.0955
ATCTGAAC	-0.017
AGTCGCTC	-0.0536
CAAGTCTG	-0.1
CCAACATA	0.195
CCCTAAGC	-0.202
CGTGCGCA	-0.00954
CAGGGTGA	-0.155
CGATGCTA	0.0257
CATGACAC	0.221
CGTCTACA	-0.114
AACGGATG	-0.0154
TGGCCGAA	0.0538
GTTCGGTA	0.184
CTCTCATA	-0.0446
ACCAAATA	0.207
CGCCACGA	-0.0919
GCCTGCAC	-0.11
ACGCGGGA	0.118
ACTTTGTG	0.0102
GTTACATA	0.253
CTCCATTA	-0.11
AATATAAT	0.18
CCGACGAC	0.0892
ACCACAAA	0.166

Sequence	PBM E-score
CCTTAGAC	0.0261
AGGCAGCA	0.021
AAGGTGAT	-0.114
CGTGCCAG	-0.00762
CCCTCCAG	-0.309
AACCTCGC	0.0491
GACCGAGA	0.125
GTTGCCGA	0.0817
AAGCGTCG	0.0859
ATCGTCCC	0.158
AGCCTACT	-0.107
CCTACGCA	-0.125
GCCATCAA	0.149
CGTCTTCC	-0.178
TAACTTGA	0.02
GACGTGCA	0.12
CCCTACCC	-0.147
GCAAACGC	0.124
AGATGACT	-0.0927
AATATTCG	0.273
AGGCCTCG	-0.242
GCTTTGAC	0.106
ACCGACAC	0.126
ACCGGGCC	-0.0842
AGGTATAC	0.129

Exported with bars between the fields: part of the list above.
Sequence | PBM E-score
CGTCTACA | -0.114
AACGGATG | -0.0154

(cont.)

Sequence	PBM E-score
GACGTATC	-0.107
CAATCTCG	-0.0657
AAGGACGA	-0.161
ATGCTCCA	-0.0639
GAATTCGC	-0.0565
CGACGCCG	-0.0124
AAAAGAGG	-0.265
ACTAACAA	-0.0409
TCCAACAA	-0.0119
TAGTAGGA	-0.123
ATCATCAC	0.0639
CCGTAGCG	-0.261
TAATTGTA	0.196
AGAACCTC	-0.191
CTGGGGAA	-0.212
CCTCATCC	-0.35
CAGGTAGC	-0.0431
ACACCGTA	-0.104
ACTTCGCA	-0.0268
TCAAGTGA	-0.1
CTACGGGC	-0.262
AAGCATTA	0.00193
AATATTGA	0.17
TCTCAGAA	-0.0653
CAATGCGC	0.165

As entered above.
For PBM E-score, ACTTCGCA reads -0.0268
For PBM E-score, ATCATCAC reads 0.0639
For PBM E-score, ACTAAGCG reads 0.3
For PBM E-score, AGTGATTG reads -0.187
For PBM E-score, CAGCATTC reads 0.0657
For PBM E-score, ACCTAAAT reads 0.148

The list goes on.

Sequence	PBM E-score
TGGGAAAA	-0.0204
CTTTATCC	0.0616
GTAACGTA	0.0425
ATTGGCTA	0.0477
AATTCTAG	0.0754
CAAGCAAC	0.0253
ACCGAAGA	0.0676
CTCGGCAA	0.0528
AGGATACC	-0.0932
AGGCACTA	-0.0654
ATACGTCC	-0.156
AGCTAGCG	0.111
AATCAATT	0.17
AAACACGT	-0.0203
CCTATAAG	-0.199
AGGTGGAA	0.0944
ACAAGTCG	-0.186
ACAGATCC	0.137
AGTTTAGA	-0.0131
GACGGGAA	0.0631
GAAGTCCC	-0.295
TGTACCAA	-0.0377
ACCGGCCG	-0.0241
GAACCCAC	0.116
CATTTCTA	0.136

Sequence	PBM E-score
AGAGTTGA	-0.0575
AGATTTCG	0.0453
ATGATACG	0.125
CTCTGGCC	-0.122
GTGACCAA	0.0231
CGACATTC	0.00278
AGAGTACT	-0.077
AGGGTGAG	-0.167
CAACTTGG	0.111
AGGGTGAC	0.103
GACCTTAA	-0.0418
CTATATCC	-0.0465
ATATCCTC	-0.0127
CCCTGGCG	-0.0134
CTCGTGCC	-0.129
AGGCAATG	-0.0344
ATTCATAA	0.111
CCGCACAG	0.00344
CGGCAAGC	-0.123
ATAAACTC	0.16
ACCTATTA	0.0336
ACAAGCCA	-0.115
CAGTATCG	0.0176
CCATGACA	0.126
CTGCTGGA	-0.0574

Sequence	PBM E-score
CTGAGCAC	0.0489
AGTCCTGC	0.00453
CCCCCTGC	-0.378
AACTATCT	0.0668
GTAATCAA	0.253
CTATTCGC	0.157
GAGGTACA	-0.18
GCAGACGC	0.072
AAGGGGTC	-0.223
GCCTCCCC	-0.147
CTCGTCGA	0.123
AACTGAAT	-0.199
CGCAATGA	-0.00237
ATCAGTAA	0.126
GGTCGACC	0.263
CTTCTTCA	-0.199
GCAATAGC	0.0208
GCAAAATA	0.128
CATGCCCG	0.0393
ATGCGTCG	0.0515
TAAGAATA	-0.0959
AATGATAT	0.222
GTGCCTAA	0.00582
GACGGCTA	-0.0222
AGGGACAT	-0.0015

Sequence	PBM E-score
AGAATAAA	0.218
ACAGAGTG	-0.0197
CCTTTAGA	-0.168
CAACAACG	0.211
CCGATAGA	-0.0969
ATCGTGAA	0.0648
ACGGTATC	0.17
CAGTAAAA	0.184
AACGGCCC	-0.206
CTAATGAC	-0.151
CCAGAAAA	-0.0283
CCGTGGTA	-0.132
CATCATAA	0.115
TGCCAGCA	0.0667
GTCGTGAA	-0.102
GCGGTACC	0.103
GAGATCAC	-0.0158
AGAAGTAC	-0.0894
AAAGTAAT	0.173
AACACACA	0.0441
TGCGCAAA	0.157
GAATTAGC	0.134
TCACAGCA	0.00981
AGCGACCG	0.0505
CAACAGGG	-0.0494

Sequence	PBM E-score
AACGGCGG	-0.0136
ATAACGAA	0.258
CCGTACGG	-0.103
AAAGTATA	0.0724
ACAGTGGG	-0.157
CTTGTTCA	0.0427
AATAATTG	0.0365
CAAGCACA	-0.0831
ACCTCCGC	-0.116
CAGACCAA	0.172
CAAGGTTA	-0.133
ACGGGTTC	-0.0875
ACCCTAAT	-0.0808
CATAATTA	0.279
CTCCGAGC	0.139
AAGATGTA	-0.00668
TAAGACAA	0.0779
GGCTCTAC	-0.14
GGAACACC	0.0385
AGAACTAA	0.173
ATCGACGG	0.0606
GACCCTCC	-0.147
TCAACGCA	0.134
GCAACCAA	0.0377
CTTCCCAC	-0.058

Sequence	PBM E-score
CGTAGAGC	0.028
CCATTCGA	-0.116
GACGGTGA	0.0758
AGCGGAGC	-0.109
GGGCGTTA	0.0777
GTCCGACA	0.109
TAGTCTGA	0.0529
CGGACACC	-0.0722
CAGGAGGG	-0.349
GTCCCATA	-0.183
ATGATTTA	0.178
ACACCGAC	-0.146
GGCAAATA	0.198
CATCGGGA	0.0722
CTCTCATC	-0.109
CCCGGATA	0.0426
CGTCCACA	0.0862
CCGCCGCA	-0.0248
CGGATCAA	0.175
ACGTCGCA	0.00852
ACTGGGCA	-0.283
CGGGCACG	-0.0374
AACCTTCT	-0.228
GTAATATA	0.327
CCGCTAGG	-0.161

Sequence	PBM E-score
CACCACAA	0.0849
GTATGCTA	-0.0728
CTCGTAAC	0.112
GTAAGAAC	0.166
AATTTCAA	0.169
ACAAACCT	0.13
CCATCAGG	-0.161
ATATAAGG	0.188
TATCACGA	-0.0139
CGTTGCCA	0.1
GGGCTGAA	0.0352
ATCGATTC	0.0832
ATCGGCTG	0.048
CGTGGACC	-0.187
AGTTTTTC	0.0832
AACGCAGA	0.075
AGAGATAA	0.064
CACACACG	-0.0832
CAGCGAAC	0.102
